Results published in paper PMC9880260, “Identification of compounds with activity against Trypanosoma cruzi within a collection of synthetic nucleoside analogs” (Frontiers in Cellular and Infection Microbiology, 2023).

What follows are compounds tested on T. cruzi amastigotes (assay: Amastigotes growth inhibition assay (infected Vero cells, 72 h, CPRG)). Conditions: Vero cells TC50 / anti-amastigote IC50.

First: O=C(Cn1ccnc1[N+](=O)[O-])NCc1ccccc1 [BNZ, benznidazole, reference compound]
Second: c1ccc(CNc2ncnc3c2nc(-c2ccccc2)n3Cc2ccccc2)cc1 [Compound L4-0c]
The “SI Anti-amastigote assay” value of the first is higher: 133.67 for the first, 127.26 for the second.

First: c1ccc(CCNc2ncnc3c2nc(-c2ccccc2)n3CCc2ccccc2)cc1 [Compound L4-1c]
Second: Brc1ccc(CCNc2ncnc3c2nc(-c2ccccc2)n3CCc2ccc(Br)cc2)cc1 [Compound L4-7c]
The “SI Anti-amastigote assay” value of the first is higher: 255.76 for the first, 121.08 for the second.

Going from `Clc1ccc(CNc2ncnc3c2ncn3Cc2ccc(Cl)cc2)cc1` [Compound L4-4a] to `Clc1ccc(CNc2ncnc3c2nc(-c2ccccc2)n3Cc2ccc(Cl)cc2)cc1` [Compound L4-4c], the “SI Anti-amastigote assay” value falls from 116.45 to 44.70.

Compared with `Clc1cccc(CNc2ncnc3c2nc(-c2ccccc2)n3Cc2cccc(Cl)c2)c1` [Compound L4-8c, N,9-bis(3-chlorobenzyl)-8-phenyl-9H-purin-6-amine], `Cc1nc2c(NCc3ccccc3Cl)ncnc2n1Cc1ccccc1Cl` [Compound L4-9b] is lower in “SI Anti-amastigote assay” value: 427.33 for the first, 126.59 for the second.

With `COc1ccc(CNc2ncnc3c2nc(-c2ccccc2)n3Cc2ccc(OC)cc2)cc1` [Compound L4-2c] the “SI Anti-amastigote assay” value was > 1,000.
